PubChem BioAssay AID1053208 – Peter MacCallum Cancer Centre, 2014
Test: 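Find knock-downs that sensitise mouse osteosarcoma cells to doxorubicin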 (primary screen). Cells: mouse osteosarcoma cells, early-passage culture from an engineered mouse model of fibroblastic bone tumour. Reagents: siRNA pool against mouse genes, 40 nM. Timing: about 120 h (48 h before drug, then 72 h with drug). Conditions: doxorubicin 100 nM for 72 h, roughly 30-40% inhibitory dose. Read-out: 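Viability read as ATP luminescence after 72 h of 100 nM doxorubicin or none, duplicate wells averaged, scaled to non-targeting siRNA, then expressed as robust z-scores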. Direction: viability z-score with doxorubicin: higher = more viable cells under doxorubicin; viability z-score without drug: higher = more viable cells with knock-down alone. Rule for the call: 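Called active if knock-down leaves viability unchanged without drug (z within -2 to 2) but lowers it with doxorubicin (z at or under -2)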.
Here is an unselected part of about 17,000 reagents. 788 of them (4.7%) count as active. 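Calls rest on z-score classes alone; an extra cut-off of viability at most 70% of control was not applied to them.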 Entries without a mark were called inactive. Further read-outs or replicates are left out here.

Mpzl2 (myelin protein zero-like 2) [SID152259432] scored combined z-score class no change with or without drug; viability z-score with doxorubicin 0.67; viability z-score without drug 0.17. Depletion of Pdia6 (protein disulfide isomerase associated 6) [SID152272190] resulted in: combined z-score class no change with or without drug; viability z-score with doxorubicin -0.56; viability z-score without drug -0.17. Silencing of Zfp85 (zinc finger protein 85) [SID152287328] came out at: combined z-score class no change with or without drug; viability z-score with doxorubicin -0.45; viability z-score without drug 1.85. After knock-down of Git2 (GIT ArfGAP 2) [SID152293638], the screen gave combined z-score class no change with or without drug; viability z-score with doxorubicin -0.79; viability z-score without drug 0.17. For Ptpn22 [SID152333398], the entry reads combined z-score class no change with or without drug; viability z-score with doxorubicin -0.22; viability z-score without drug -1.18. Mfsd8 (major facilitator superfamily domain containing 8) [SID152299991] gave combined z-score class no change with or without drug; viability z-score with doxorubicin 0.9; viability z-score without drug 0.34.

Depletion of Nr2f1 (nuclear receptor subfamily 2, group F, member 1) [SID152264747] came out at: combined z-score class high cell count without drug only; viability z-score with doxorubicin 1.12; viability z-score without drug 2.02. For Pagr1a (PAXIP1 associated glutamate rich protein 1A) [SID152293859] the deposit lists combined z-score class no change with or without drug; viability z-score with doxorubicin 0.34; viability z-score without drug -0.17.

Records above whose target name begins with P or p:
Pdia6 (protein disulfide isomerase associated 6) [SID152272190] — combined z-score class = no change with or without drug; viability z-score with doxorubicin = -0.56; viability z-score without drug = -0.17
Ptpn22 [SID152333398] — combined z-score class = no change with or without drug; viability z-score with doxorubicin = -0.22; viability z-score without drug = -1.18
Pagr1a (PAXIP1 associated glutamate rich protein 1A) [SID152293859] — combined z-score class = no change with or without drug; viability z-score with doxorubicin = 0.34; viability z-score without drug = -0.17

The results go on.
Bmper (BMP-binding endothelial regulator) [SID152285384] gave combined z-score class no change with or without drug; viability z-score with doxorubicin -0.22; viability z-score without drug -1.18. For Rcc1 (regulator of chromosome condensation 1) [SID152305206], the values are combined z-score class no change with or without drug; viability z-score with doxorubicin -0.67; viability z-score without drug -1.52. After knock-down of Mkln1 (muskelin 1, intracellular mediator containing kelch motifs) [SID152320886], the record shows combined z-score class high cell count without drug only; viability z-score with doxorubicin 0.79; viability z-score without drug 2.19. Against Il1b (interleukin 1 beta) [SID152299821], the entry reads combined z-score class no change with or without drug; viability z-score with doxorubicin 0.22; viability z-score without drug 0.51.
